In the supplement of paper PMC12823440, “Inhibitors supercharge kinase turnover through native proteolytic circuits” (Nature, 2025):
Where a name gives a salt, the structure may show the parent alone. The list shows a part of the results. The calls rarely recur for the same compound in another form.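 Kinases were expressed as nanoluciferase fusions in K562 cells and luminescence was read every 4 h between 2 and 18 h as percent of control, DMSO set to 100% and a positive control to 0%. A time point counts as decreased when the signal drops significantly (2 sigma). The hit call is the authors' own, does not follow from the count of time points alone, and its rule is not shown.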

Amino acid sequences for entries named in this document (tags omitted). A change or cut given only in a name is not applied to a line headed by its entry.
UniProt P07949, whole entry, looked up: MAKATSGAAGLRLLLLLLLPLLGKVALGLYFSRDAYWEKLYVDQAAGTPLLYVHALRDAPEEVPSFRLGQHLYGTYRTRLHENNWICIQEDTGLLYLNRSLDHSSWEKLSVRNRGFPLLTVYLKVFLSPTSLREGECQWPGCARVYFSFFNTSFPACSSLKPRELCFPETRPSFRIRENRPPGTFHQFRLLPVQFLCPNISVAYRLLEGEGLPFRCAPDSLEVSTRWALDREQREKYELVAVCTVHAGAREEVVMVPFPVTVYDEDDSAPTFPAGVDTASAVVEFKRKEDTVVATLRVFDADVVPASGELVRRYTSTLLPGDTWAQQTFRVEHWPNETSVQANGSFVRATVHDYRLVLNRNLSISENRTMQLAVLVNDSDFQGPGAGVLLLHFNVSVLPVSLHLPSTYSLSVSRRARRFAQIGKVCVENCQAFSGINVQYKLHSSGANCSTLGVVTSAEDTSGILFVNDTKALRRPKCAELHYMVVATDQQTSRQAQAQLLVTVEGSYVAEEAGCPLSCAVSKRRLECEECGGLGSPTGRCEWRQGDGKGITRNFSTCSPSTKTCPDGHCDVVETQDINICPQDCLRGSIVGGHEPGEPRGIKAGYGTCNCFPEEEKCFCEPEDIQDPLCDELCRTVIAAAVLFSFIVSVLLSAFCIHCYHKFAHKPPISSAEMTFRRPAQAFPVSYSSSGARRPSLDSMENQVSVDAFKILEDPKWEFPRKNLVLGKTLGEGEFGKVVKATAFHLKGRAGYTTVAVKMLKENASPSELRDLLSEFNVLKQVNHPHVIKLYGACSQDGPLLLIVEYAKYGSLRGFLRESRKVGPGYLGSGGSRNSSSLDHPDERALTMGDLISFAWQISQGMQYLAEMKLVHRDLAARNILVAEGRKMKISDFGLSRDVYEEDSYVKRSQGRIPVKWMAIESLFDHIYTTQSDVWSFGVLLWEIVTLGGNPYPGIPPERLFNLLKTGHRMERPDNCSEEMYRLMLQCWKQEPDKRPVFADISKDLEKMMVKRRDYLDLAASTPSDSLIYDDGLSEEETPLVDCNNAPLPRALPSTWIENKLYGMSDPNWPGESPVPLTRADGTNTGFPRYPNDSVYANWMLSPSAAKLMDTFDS
UniProt P07949, whole entry M918T, looked up: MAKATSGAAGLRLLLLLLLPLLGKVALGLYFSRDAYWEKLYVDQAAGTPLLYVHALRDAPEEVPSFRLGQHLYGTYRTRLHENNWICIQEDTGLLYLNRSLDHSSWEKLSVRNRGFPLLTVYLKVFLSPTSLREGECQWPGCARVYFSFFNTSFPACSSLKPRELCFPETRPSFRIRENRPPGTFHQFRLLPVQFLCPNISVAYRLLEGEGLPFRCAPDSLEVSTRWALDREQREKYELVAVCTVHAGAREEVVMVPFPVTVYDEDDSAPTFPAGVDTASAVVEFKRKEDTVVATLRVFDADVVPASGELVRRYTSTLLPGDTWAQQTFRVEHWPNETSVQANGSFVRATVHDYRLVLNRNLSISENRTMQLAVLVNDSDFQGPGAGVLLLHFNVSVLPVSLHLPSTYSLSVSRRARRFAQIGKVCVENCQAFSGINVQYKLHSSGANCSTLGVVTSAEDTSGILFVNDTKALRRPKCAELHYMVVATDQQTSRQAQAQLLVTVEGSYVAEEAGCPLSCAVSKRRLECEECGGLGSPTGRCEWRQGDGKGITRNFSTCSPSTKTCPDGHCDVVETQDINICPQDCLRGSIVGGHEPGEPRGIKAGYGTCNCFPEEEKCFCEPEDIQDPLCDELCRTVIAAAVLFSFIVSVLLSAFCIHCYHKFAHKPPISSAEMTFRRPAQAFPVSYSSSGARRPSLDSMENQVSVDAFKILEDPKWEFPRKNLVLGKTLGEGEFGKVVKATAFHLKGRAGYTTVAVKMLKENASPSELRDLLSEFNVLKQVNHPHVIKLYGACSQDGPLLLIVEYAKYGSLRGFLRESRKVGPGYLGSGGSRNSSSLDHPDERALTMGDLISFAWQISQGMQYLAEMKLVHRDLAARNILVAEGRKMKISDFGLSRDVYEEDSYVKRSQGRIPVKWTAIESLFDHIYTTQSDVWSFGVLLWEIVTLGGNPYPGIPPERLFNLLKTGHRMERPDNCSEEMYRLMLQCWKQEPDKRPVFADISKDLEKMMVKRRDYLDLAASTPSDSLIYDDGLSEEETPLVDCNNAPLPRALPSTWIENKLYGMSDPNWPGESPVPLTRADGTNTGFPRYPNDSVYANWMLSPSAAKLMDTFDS
UniProt Q9BRS2: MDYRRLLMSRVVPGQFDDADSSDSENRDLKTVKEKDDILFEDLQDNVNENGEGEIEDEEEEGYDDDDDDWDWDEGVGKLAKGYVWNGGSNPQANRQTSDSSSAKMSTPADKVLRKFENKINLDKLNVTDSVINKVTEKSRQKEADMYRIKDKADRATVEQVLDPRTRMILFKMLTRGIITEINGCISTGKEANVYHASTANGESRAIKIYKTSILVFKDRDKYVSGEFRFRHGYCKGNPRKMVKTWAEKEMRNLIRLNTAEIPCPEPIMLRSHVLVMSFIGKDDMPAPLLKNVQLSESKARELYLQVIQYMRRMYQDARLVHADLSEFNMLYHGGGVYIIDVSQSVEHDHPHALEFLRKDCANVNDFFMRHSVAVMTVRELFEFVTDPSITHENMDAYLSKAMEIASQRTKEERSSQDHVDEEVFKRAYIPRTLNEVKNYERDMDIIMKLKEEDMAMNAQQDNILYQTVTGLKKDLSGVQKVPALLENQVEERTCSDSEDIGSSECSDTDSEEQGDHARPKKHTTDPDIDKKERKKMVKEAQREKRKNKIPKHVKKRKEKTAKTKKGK
UniProt Q13546: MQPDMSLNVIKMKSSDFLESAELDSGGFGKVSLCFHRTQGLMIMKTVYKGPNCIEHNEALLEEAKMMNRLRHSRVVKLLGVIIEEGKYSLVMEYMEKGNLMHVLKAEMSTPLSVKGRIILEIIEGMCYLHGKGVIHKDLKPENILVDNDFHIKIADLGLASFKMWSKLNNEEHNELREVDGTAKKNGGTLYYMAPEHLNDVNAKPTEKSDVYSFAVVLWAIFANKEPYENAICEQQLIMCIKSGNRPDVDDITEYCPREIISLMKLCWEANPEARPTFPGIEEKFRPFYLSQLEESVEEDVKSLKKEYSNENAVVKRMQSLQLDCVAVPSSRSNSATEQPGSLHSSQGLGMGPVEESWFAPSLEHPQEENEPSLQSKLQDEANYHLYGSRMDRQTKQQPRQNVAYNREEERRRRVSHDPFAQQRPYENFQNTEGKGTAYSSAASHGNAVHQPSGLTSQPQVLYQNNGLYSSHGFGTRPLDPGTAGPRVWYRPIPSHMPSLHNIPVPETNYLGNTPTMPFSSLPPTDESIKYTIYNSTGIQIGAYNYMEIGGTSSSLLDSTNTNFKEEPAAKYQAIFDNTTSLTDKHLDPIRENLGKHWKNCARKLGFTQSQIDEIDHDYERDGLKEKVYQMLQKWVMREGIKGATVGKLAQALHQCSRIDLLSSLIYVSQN
UniProt Q01974, whole entry: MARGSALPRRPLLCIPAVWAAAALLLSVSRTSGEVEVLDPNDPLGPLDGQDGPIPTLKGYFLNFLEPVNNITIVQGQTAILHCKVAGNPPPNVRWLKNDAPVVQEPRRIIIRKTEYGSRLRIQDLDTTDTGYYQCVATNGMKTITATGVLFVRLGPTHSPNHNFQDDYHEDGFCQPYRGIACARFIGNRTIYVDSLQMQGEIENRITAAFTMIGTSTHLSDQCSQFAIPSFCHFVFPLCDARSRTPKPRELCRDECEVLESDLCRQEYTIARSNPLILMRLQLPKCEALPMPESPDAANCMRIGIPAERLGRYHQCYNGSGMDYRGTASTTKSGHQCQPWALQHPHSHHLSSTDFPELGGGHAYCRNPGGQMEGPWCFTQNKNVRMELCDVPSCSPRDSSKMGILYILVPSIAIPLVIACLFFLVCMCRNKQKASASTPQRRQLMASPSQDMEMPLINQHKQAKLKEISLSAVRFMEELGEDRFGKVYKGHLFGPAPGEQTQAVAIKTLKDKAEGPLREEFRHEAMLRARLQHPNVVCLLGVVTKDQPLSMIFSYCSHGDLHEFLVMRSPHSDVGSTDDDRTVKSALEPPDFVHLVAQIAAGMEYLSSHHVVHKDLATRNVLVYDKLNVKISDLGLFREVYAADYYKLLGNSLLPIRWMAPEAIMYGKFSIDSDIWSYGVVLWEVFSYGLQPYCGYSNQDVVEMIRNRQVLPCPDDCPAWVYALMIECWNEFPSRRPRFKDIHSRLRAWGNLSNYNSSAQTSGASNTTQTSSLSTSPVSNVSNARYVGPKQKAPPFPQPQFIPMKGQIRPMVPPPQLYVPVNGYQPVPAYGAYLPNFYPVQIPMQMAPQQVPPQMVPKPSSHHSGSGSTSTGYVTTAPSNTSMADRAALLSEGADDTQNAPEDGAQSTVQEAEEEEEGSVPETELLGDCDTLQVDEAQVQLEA
UniProt Q15418, whole entry: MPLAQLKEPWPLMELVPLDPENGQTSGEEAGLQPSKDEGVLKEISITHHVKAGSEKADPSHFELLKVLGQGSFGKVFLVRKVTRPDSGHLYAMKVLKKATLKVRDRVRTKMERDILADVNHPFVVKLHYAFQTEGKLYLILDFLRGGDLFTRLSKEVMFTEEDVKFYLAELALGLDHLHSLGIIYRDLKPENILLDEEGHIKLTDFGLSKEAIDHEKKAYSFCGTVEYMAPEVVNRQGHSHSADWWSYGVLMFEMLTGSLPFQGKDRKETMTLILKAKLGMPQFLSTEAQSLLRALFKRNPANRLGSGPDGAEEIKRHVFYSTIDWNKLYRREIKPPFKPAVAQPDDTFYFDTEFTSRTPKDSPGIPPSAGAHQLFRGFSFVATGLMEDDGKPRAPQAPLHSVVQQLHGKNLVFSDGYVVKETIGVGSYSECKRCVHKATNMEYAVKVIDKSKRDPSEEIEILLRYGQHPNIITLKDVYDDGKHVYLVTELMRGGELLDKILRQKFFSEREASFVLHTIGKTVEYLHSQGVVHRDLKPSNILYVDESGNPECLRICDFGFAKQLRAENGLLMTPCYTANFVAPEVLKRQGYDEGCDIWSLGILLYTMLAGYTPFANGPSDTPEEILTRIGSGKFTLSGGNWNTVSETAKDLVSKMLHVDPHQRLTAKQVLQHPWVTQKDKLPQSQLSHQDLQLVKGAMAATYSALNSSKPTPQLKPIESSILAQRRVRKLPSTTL
UniProt Q9NYA1, whole entry: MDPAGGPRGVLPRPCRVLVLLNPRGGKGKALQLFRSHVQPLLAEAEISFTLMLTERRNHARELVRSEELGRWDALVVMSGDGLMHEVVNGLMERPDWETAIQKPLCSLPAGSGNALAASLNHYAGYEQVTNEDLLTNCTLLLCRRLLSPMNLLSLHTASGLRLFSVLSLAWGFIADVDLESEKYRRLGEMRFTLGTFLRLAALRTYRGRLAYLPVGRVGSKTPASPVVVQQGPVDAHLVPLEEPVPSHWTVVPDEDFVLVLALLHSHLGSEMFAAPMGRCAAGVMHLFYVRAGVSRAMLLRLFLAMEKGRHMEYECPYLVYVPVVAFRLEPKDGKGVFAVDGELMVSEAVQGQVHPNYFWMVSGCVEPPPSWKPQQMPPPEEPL
UniProt Q9Y6E0: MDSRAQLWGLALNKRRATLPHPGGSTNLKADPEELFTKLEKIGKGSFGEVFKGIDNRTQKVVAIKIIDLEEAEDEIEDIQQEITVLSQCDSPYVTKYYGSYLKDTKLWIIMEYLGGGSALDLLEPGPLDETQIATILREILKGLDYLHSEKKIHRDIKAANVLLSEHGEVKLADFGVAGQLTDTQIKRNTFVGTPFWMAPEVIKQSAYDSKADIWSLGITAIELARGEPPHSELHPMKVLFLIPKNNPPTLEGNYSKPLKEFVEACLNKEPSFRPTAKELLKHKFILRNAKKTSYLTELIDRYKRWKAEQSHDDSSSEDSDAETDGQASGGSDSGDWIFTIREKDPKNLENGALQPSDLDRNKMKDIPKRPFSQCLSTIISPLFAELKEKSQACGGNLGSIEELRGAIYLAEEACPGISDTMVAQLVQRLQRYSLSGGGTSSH

Legend:
Assay in all cases: kinase-Nluc reporter destabilization hit call (1 = scored as downregulated) (binary); higher = compound decreases kinase abundance
Conditions in all cases: K562; 2-18 h
RET = RET (UniProt P07949)
[1] = target: RET_M918T (clone: RET_mut) (UniProt P07949)
RIOK1 = RIOK1 (UniProt Q9BRS2)
RIPK1 = RIPK1 (UniProt Q13546)
RIPK2 = RIPK2 (UniProt O43353)
ROR2 = ROR2 (UniProt Q01974)
RPS6KA1 = RPS6KA1 (UniProt Q15418)
SPHK1 = SPHK1 (UniProt Q9NYA1)
SRC = SRC (UniProt P12931)
STK24 = STK24 (UniProt Q9Y6E0)

Compound | kinase-Nluc reporter destabilization hit call (RET) | kinase-Nluc reporter destabilization hit call [1] | kinase-Nluc reporter destabilization hit call (RIOK1) | kinase-Nluc reporter destabilization hit call (RIPK1) | kinase-Nluc reporter destabilization hit call (RIPK2) | kinase-Nluc reporter destabilization hit call (ROR2) | kinase-Nluc reporter destabilization hit call (RPS6KA1) | kinase-Nluc reporter destabilization hit call (SPHK1) | kinase-Nluc reporter destabilization hit call (SRC) | kinase-Nluc reporter destabilization hit call (STK24)
O=C(/C=C/c1ccc(O)c(O)c1)c1ccc(O)cc1O [Butein] (10 µM) | inactive: 0 | inactive: 0 | inactive: 0 | inactive: 0 | inactive: 0 | inactive: 0 | inactive: 0 | inactive: 0 | inactive: 0 | inactive: 0
O=c1cc(N2CCOCC2)oc2c(-c3ccccc3)cccc12 (10 µM) | inactive: 0 | inactive: 0 | inactive: 0 | inactive: 0 | inactive: 0 | inactive: 0 | inactive: 0 | inactive: 0 | inactive: 0 | inactive: 0
COc1cc2ncnc(Nc3cccc(O)c3)c2cc1OC (10 µM) | inactive: 0 | inactive: 0 | inactive: 0 | inactive: 0 | active: 1 | inactive: 0 | inactive: 0 | inactive: 0 | inactive: 0 | inactive: 0
FC(F)(F)c1ccc(CNc2ccc(Cc3c[nH]c4ncc(Cl)cc34)cn2)cc1 (10 µM) | inactive: 0 | inactive: 0 | inactive: 0 | inactive: 0 | inactive: 0 | inactive: 0 | inactive: 0 | inactive: 0 | inactive: 0 | inactive: 0
CN1CCN(c2ccc(C(=O)Nc3n[nH]c4ccc(Cc5cc(F)cc(F)c5)cc34)c(NC3CCOCC3)c2)CC1 [Entrectinib] (2.5 µM) | inactive: 0 | inactive: 0 | inactive: 0 | inactive: 0 | inactive: 0 | inactive: 0 | inactive: 0 | inactive: 0 | inactive: 0 | inactive: 0
CNC(=O)c1cc(Oc2ccc(NC(=O)Nc3cc(C(C)(C)C)nn3-c3ccc4ncccc4c3)c(F)c2)ccn1 [Rebastinib] (2.5 µM) | inactive: 0 | inactive: 0 | inactive: 0 | inactive: 0 | inactive: 0 | inactive: 0 | inactive: 0 | inactive: 0 | inactive: 0 | inactive: 0
CCn1cc(-c2ccnc3[nH]c(-c4cccc(CN(C)C)c4)cc23)c(-c2ccc(NC(=O)N(C)C)cc2)n1 (2.5 µM) | inactive: 0 | inactive: 0 | inactive: 0 | inactive: 0 | inactive: 0 | inactive: 0 | inactive: 0 | inactive: 0 | inactive: 0 | inactive: 0
O=S(=O)(NCCNC/C=C/c1ccc(Br)cc1)c1cccc2cnccc12 [H-89 (dihydrochloride)] (10 µM) | inactive: 0 | inactive: 0 | inactive: 0 | inactive: 0 | inactive: 0 | inactive: 0 | inactive: 0 | inactive: 0 | inactive: 0 | inactive: 0
Nc1nc(N)c(N=O)c(OCC2CCCCC2)n1 (10 µM) | inactive: 0 | inactive: 0 | inactive: 0 | inactive: 0 | inactive: 0 | inactive: 0 | inactive: 0 | inactive: 0 | inactive: 0 | inactive: 0
COc1cc(OC)c(F)c(COc2cnc(Nc3cnn(CCO)c3)nc2)c1F (2.5 µM) | inactive: 0 | inactive: 0 | inactive: 0 | inactive: 0 | inactive: 0 | inactive: 0 | inactive: 0 | inactive: 0 | inactive: 0 | inactive: 0
CCn1c(=O)c2cc(C(N)=O)c(N)nc2n(C2CC2)c1=O (10 µM) | inactive: 0 | inactive: 0 | inactive: 0 | inactive: 0 | inactive: 0 | inactive: 0 | inactive: 0 | inactive: 0 | inactive: 0 | inactive: 0
C=CC(=O)N1C[C@H](Nc2ncnc3[nH]ccc23)CC[C@@H]1C [Ritlecitinib] (10 µM) | inactive: 0 | inactive: 0 | inactive: 0 | inactive: 0 | inactive: 0 | inactive: 0 | inactive: 0 | inactive: 0 | inactive: 0 | inactive: 0
O=C(Nc1cc(C(F)(F)F)ccc1N1CCN(Cc2ccccn2)CC1)c1ccc(-c2ccncc2)o1 (10 µM) | inactive: 0 | inactive: 0 | inactive: 0 | inactive: 0 | inactive: 0 | inactive: 0 | inactive: 0 | inactive: 0 | inactive: 0 | inactive: 0
CCOc1ccn(-c2ccc(F)cc2)c(=O)c1C(=O)Nc1ccc(Oc2ccnc(N)c2Cl)c(F)c1 (10 µM) | inactive: 0 | inactive: 0 | inactive: 0 | inactive: 0 | inactive: 0 | inactive: 0 | inactive: 0 | inactive: 0 | inactive: 0 | inactive: 0
COc1ccc(Oc2cc(NCCC(F)(F)F)c3ncc(-c4ccc(C(=O)NC5CC5)c(C)c4)n3n2)c(F)c1F (2.5 µM) | inactive: 0 | inactive: 0 | inactive: 0 | inactive: 0 | inactive: 0 | inactive: 0 | inactive: 0 | inactive: 0 | inactive: 0 | inactive: 0
CC(C)(C)c1nc2c3cc[nH]c(=O)c3c3cc(F)ccc3c2[nH]1 [Pyridone 6] (10 µM) | inactive: 0 | inactive: 0 | inactive: 0 | inactive: 0 | inactive: 0 | inactive: 0 | inactive: 0 | inactive: 0 | inactive: 0 | inactive: 0
C=CC(=O)N1CC[C@H](n2nc(C#Cc3cc(OC)cc(OC)c3)c3c(N)ncnc32)C1 [Futibatinib] (10 µM) | inactive: 0 | inactive: 0 | inactive: 0 | inactive: 0 | inactive: 0 | inactive: 0 | inactive: 0 | inactive: 0 | inactive: 0 | inactive: 0
COC(=O)c1ccc2c(C(=Nc3ccc(N(C)C(=O)CN4CCN(C)CC4)cc3)c3ccccc3)c(O)[nH]c2c1 [Nintedanib] (2.5 µM) | inactive: 0 | inactive: 0 | inactive: 0 | inactive: 0 | inactive: 0 | inactive: 0 | inactive: 0 | inactive: 0 | inactive: 0 | inactive: 0
CCN(CCO)CCCOc1ccc2c(Nc3cc(CC(=O)Nc4cccc(F)c4)[nH]n3)ncnc2c1 [Barasertib-HQPA] (10 µM) | inactive: 0 | inactive: 0 | inactive: 0 | inactive: 0 | inactive: 0 | inactive: 0 | inactive: 0 | inactive: 0 | inactive: 0 | inactive: 0
COc1cc(C=C(C#N)C(N)=O)cc(CSc2nc3ccccc3s2)c1O (10 µM) | inactive: 0 | inactive: 0 | inactive: 0 | inactive: 0 | inactive: 0 | inactive: 0 | inactive: 0 | inactive: 0 | inactive: 0 | inactive: 0
CCN(CCCOc1ccc2c(Nc3cc(CC(=O)Nc4cccc(F)c4)[nH]n3)ncnc2c1)CCOP(=O)(O)O [Barasertib] (10 µM) | inactive: 0 | inactive: 0 | inactive: 0 | inactive: 0 | inactive: 0 | inactive: 0 | inactive: 0 | inactive: 0 | inactive: 0 | inactive: 0
O=c1c(O)c(-c2ccc(O)c(O)c2)oc2cc(O)cc(O)c12 [Quercetin (dihydrate)] (10 µM) | inactive: 0 | inactive: 0 | inactive: 0 | inactive: 0 | inactive: 0 | inactive: 0 | inactive: 0 | inactive: 0 | inactive: 0 | inactive: 0
O=c1oc2c(O)c(O)cc3c(=O)oc4c(O)c(O)cc1c4c23 [Ellagic acid] (10 µM) | inactive: 0 | inactive: 0 | inactive: 0 | inactive: 0 | inactive: 0 | inactive: 0 | inactive: 0 | inactive: 0 | inactive: 0 | inactive: 0
C=CC(=O)N1CCN(CCCn2c(=O)c(-c3c(Cl)c(OC)cc(OC)c3Cl)cc3cnc(NC)nc32)CC1 (10 µM) | inactive: 0 | inactive: 0 | inactive: 0 | inactive: 0 | inactive: 0 | inactive: 0 | inactive: 0 | inactive: 0 | inactive: 0 | inactive: 0
C[C@]1(O)C[C@@H](c2nc(-c3ccc4ccc(-c5ccccc5)nc4c3)c3c(N)nccn32)C1 [Linsitinib] (2.5 µM) | inactive: 0 | inactive: 0 | inactive: 0 | inactive: 0 | inactive: 0 | inactive: 0 | inactive: 0 | inactive: 0 | inactive: 0 | inactive: 0
O=C([O-])c1ccccc1O.[Na+] [Sodium Salicylate] (10 µM) | inactive: 0 | inactive: 0 | inactive: 0 | inactive: 0 | inactive: 0 | inactive: 0 | inactive: 0 | inactive: 0 | inactive: 0 | inactive: 0
CC(C)c1ccc2oc3nc(N)c(C(=O)O)cc3c(=O)c2c1 [Amlexanox] (10 µM) | inactive: 0 | inactive: 0 | inactive: 0 | inactive: 0 | inactive: 0 | inactive: 0 | inactive: 0 | inactive: 0 | inactive: 0 | inactive: 0
Cc1cc(F)c(C(=O)Nc2cccc(-c3nncn3C(C)C)n2)cc1-n1cnc(C2CC2)c1 [Selonsertib] (10 µM) | inactive: 0 | inactive: 0 | inactive: 0 | inactive: 0 | inactive: 0 | inactive: 0 | inactive: 0 | inactive: 0 | inactive: 0 | inactive: 0
C=CC(=O)N[C@H]1COC[C@H]1Nc1ncc2cc(-c3c(Cl)c(OC)cc(OC)c3Cl)c(=O)n(C)c2n1 (10 µM) | inactive: 0 | inactive: 0 | inactive: 0 | inactive: 0 | inactive: 0 | inactive: 0 | inactive: 0 | inactive: 0 | inactive: 0 | inactive: 0

Reformatted: entries from further up
Compound	kinase-Nluc reporter destabilization hit call (RET)	kinase-Nluc reporter destabilization hit call [1]	kinase-Nluc reporter destabilization hit call (RIOK1)	kinase-Nluc reporter destabilization hit call (RIPK1)	kinase-Nluc reporter destabilization hit call (RIPK2)	kinase-Nluc reporter destabilization hit call (ROR2)	kinase-Nluc reporter destabilization hit call (RPS6KA1)	kinase-Nluc reporter destabilization hit call (SPHK1)	kinase-Nluc reporter destabilization hit call (SRC)	kinase-Nluc reporter destabilization hit call (STK24)
CCn1cc(-c2ccnc3[nH]c(-c4cccc(CN(C)C)c4)cc23)c(-c2ccc(NC(=O)N(C)C)cc2)n1 (2.5 µM)	inactive: 0	inactive: 0	inactive: 0	inactive: 0	inactive: 0	inactive: 0	inactive: 0	inactive: 0	inactive: 0	inactive: 0
O=S(=O)(NCCNC/C=C/c1ccc(Br)cc1)c1cccc2cnccc12 [H-89 (dihydrochloride)] (10 µM)	inactive: 0	inactive: 0	inactive: 0	inactive: 0	inactive: 0	inactive: 0	inactive: 0	inactive: 0	inactive: 0	inactive: 0
CCn1c(=O)c2cc(C(N)=O)c(N)nc2n(C2CC2)c1=O (10 µM)	inactive: 0	inactive: 0	inactive: 0	inactive: 0	inactive: 0	inactive: 0	inactive: 0	inactive: 0	inactive: 0	inactive: 0
C=CC(=O)N1C[C@H](Nc2ncnc3[nH]ccc23)CC[C@@H]1C [Ritlecitinib] (10 µM)	inactive: 0	inactive: 0	inactive: 0	inactive: 0	inactive: 0	inactive: 0	inactive: 0	inactive: 0	inactive: 0	inactive: 0
O=C(Nc1cc(C(F)(F)F)ccc1N1CCN(Cc2ccccn2)CC1)c1ccc(-c2ccncc2)o1 (10 µM)	inactive: 0	inactive: 0	inactive: 0	inactive: 0	inactive: 0	inactive: 0	inactive: 0	inactive: 0	inactive: 0	inactive: 0
CC(C)(C)c1nc2c3cc[nH]c(=O)c3c3cc(F)ccc3c2[nH]1 [Pyridone 6] (10 µM)	inactive: 0	inactive: 0	inactive: 0	inactive: 0	inactive: 0	inactive: 0	inactive: 0	inactive: 0	inactive: 0	inactive: 0
COC(=O)c1ccc2c(C(=Nc3ccc(N(C)C(=O)CN4CCN(C)CC4)cc3)c3ccccc3)c(O)[nH]c2c1 [Nintedanib] (2.5 µM)	inactive: 0	inactive: 0	inactive: 0	inactive: 0	inactive: 0	inactive: 0	inactive: 0	inactive: 0	inactive: 0	inactive: 0
O=c1oc2c(O)c(O)cc3c(=O)oc4c(O)c(O)cc1c4c23 [Ellagic acid] (10 µM)	inactive: 0	inactive: 0	inactive: 0	inactive: 0	inactive: 0	inactive: 0	inactive: 0	inactive: 0	inactive: 0	inactive: 0
